Experimental data published in PubChem BioAssay AID488789 (Broad Institute, 2010).
The shares of active, inactive and inconclusive entries below differ from those in the screen. Calls of active or inactive are those of the source.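 Rule for the calls: active = samples whose fitted half-maximal inhibition concentration is no more than ten times the top valid dose tested; inconclusive = flat response between -70 and -30, or invalid curve fit; inactive = flat within 30 of zero, potency above limit, or signal rising.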

Sequences of proteins named here, by UniProt entry; tags and fusion partners are left off.
UniProt P00761, whole entry, looked up: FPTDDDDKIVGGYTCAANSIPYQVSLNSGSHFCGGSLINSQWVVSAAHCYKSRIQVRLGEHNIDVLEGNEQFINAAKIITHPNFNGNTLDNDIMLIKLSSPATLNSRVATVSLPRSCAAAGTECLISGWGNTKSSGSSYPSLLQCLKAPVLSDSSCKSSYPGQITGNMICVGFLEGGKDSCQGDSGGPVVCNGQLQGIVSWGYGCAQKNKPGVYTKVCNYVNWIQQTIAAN

These molecules were tested against Trypsin (Sus scrofa) (UniProt P00761) (assay: porcine trypsin inhibitors, dose response, selectivity assay for Rce1 protease inhibitor project, biochemical, quenched peptide fluorescence, cherry-pick (AID 488789;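 note: more negative means stronger trypsin inhibition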)). Settings: quenched peptide cleavage fluorescence; at 10 µM (top of the series).

Compound | activity change, negative = inhibition
Cc1nc(N2CCOCC2)c2c(C)c(C(=O)Nc3ccc(C(F)(F)F)cc3)sc2n1 | inconclusive: -82.9%
O=C(O)c1ccc(Nc2nc3ccc(Cl)cc3[nH]2)cc1 | inconclusive: -24.3%
Cc1c(C)c2ccc(OC(C)C(=O)NCCCN3CCOCC3)c(C)c2oc1=O (stereo not given) | inconclusive: -33.8%
NC(=O)CCCn1c(C(=O)c2cc(Cl)c(N)c(Cl)c2)c2ccc(C(F)(F)F)cc2[n+]1[O-] | inconclusive: 6.41%
O=c1[nH]cccc1-c1nc2ccccc2n1Cc1cccc(Cl)c1 | inconclusive: -81.4%
COc1ccc(C2CC(c3cccs3)=NN2c2ccc(C=O)cc2)cc1 (stereo not given) | inconclusive: -20.4%
CC(C)C(=O)Nc1cccc(NC(=S)NC(=O)C(c2ccccc2)c2ccccc2)c1 | inconclusive: 6.55%
CC1=CC2=NC(=O)CC(C)(C(=O)N(CC(=O)NC3CCCC3)Cc3ccccc3)N2C=C1 (stereo not given) | inconclusive: -26%
O=C1CCN(Cc2ccccc2)CCN1[C@H](CSc1ccccc1)Cc1ccccc1 | inactive: 11%
O=C(Nc1ccc(S(=O)(=O)Nc2ccccc2)cc1)C1COc2ccccc2O1 (stereo not given) | inactive: 0.348%
CSc1nnc(-c2sc(-c3ccccc3)nc2C)n1C | inactive: 12.8%
CCOCc1cc(C)[nH]c(=O)c1C#N | inconclusive: -85.7%
N#Cc1c(N2CCN(C(=O)c3ccccc3)CC2)nc(-c2ccccc2)c2c1CCCC2 | inconclusive: -92.9%
Cc1cccc(NS(=O)(=O)c2ccc(C)c(C(=O)OCC(=O)Nc3cc(C)on3)c2)c1 | inactive: 1.4%
CCN(CC)CCN(C(=O)c1ccc2ccccc2c1)c1nc2cc3c(cc2s1)OCO3 | inactive: -4.86%
O=S(=O)(O)c1cc2oc(-c3ccccc3)nc2c2ccccc12 | inconclusive: -196%
Cc1cc(C)n(CC(=O)NC2CCCCC2C)c(=O)c1C#N (stereo not given) | inconclusive: -5.45%
COCCn1cc(C(=O)NCCN(C)C)c2c3ccccc3n(C)c2c1=O | inconclusive: -18.9%
CCOC(=O)c1c(C2COc3ccccc3O2)csc1NC(=O)c1ccccc1 (stereo not given) | inconclusive: -15.2%
CCOC(=O)c1sc2nc(C3CC3)cc(-c3ccc(F)cc3)c2c1N | inconclusive: -40.5%
OCCN(CCO)c1ccc2ccccc2c1 | inconclusive: -118%
Cc1csc2nc(=O)c3ccccc3n12 | inconclusive: 47.8%
CCOc1ccc(OCC)c(NC(=O)c2nnn(CC(=O)Nc3cc(C)cc(C)c3)c2N)c1 | inconclusive: -33.4%
COc1ccc(-c2cc(C(F)(F)F)nc(SCC(=O)NCc3cnn(C)c3C)n2)cc1OC | inconclusive: 8.67%
CCCCNC(=S)N=Nc1c(O)n(Cc2ccccc2)c2ccccc12 | inconclusive: -7.37%
COc1cccc(/C=C/C(=O)OCC(=O)Nc2ccc(Cl)c(S(=O)(=O)N(C)C)c2)c1OC | inconclusive: 11.2%
COC(=O)/C=c1\[nH]c2nnc(C)n2c1=O | inconclusive: -10.3%
CS(=O)(=O)Nc1ccccc1C(=O)NCc1ccccc1Cl | inactive: 10.6%
CCCN(CCC)CCNC(=O)c1cc2c(-c3ccc(Cl)cc3)nn(C)c2s1 | inactive: 5.01%
COCCCNC(=O)c1cc2cc3cc(OC)ccc3nc2o1 | inconclusive: -18.3%

Looked up above.
Value of COc1ccc(C2CC(c3cccs3)=NN2c2ccc(C=O)cc2)cc1 (stereo not given) under activity change, negative = inhibition: inconclusive: -20.4%
Value of CCN(CC)CCN(C(=O)c1ccc2ccccc2c1)c1nc2cc3c(cc2s1)OCO3 under activity change, negative = inhibition: inactive: -4.86%
